Assay results: the supplement of paper PMC10338343
± gives the standard deviation. Only a part is listed here, and it is no random draw. Many of these values have a large error.

system: MILI (PIWIL2) piRISC loaded with Kctd7 piRNA (26 nt); experiment: pre-steady-state target cleavage rate (min^-1); MIWI and MILI are mouse PIWI proteins and EfPiwi is from a freshwater sponge; tags in brackets are library labels; higher = faster piRNA-guided slicing of the target; conditions: guide: Kctd7 piRNA 5'p-UGUUAAUCUCUCAGAGAAGGUGACAG; auxiliary factor: 500 nM mouse GTSF1
Summary of the method: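 The method was Cleave-'n-Seq, in which uncleaved targets from a transcribed, DNA-blocked target RNA library were sequenced after exposure to active affinity-purified piRISC carrying one synthetic guide, with or without GTSF1 partner protein. Reactions contained 0.1 nM library, 1 nM piRISC and, where present, 500 nM GTSF1 in HEPES–potassium acetate buffer at 33 °C for 0–8 or 0–960 min. Reads were normalised to depth and to weakly complementary targets, three trials were pooled, and k3 was capped at 0.0001 min^-1. The pre-steady-state cleavage rate came from a burst-and-steady-state fit.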

| Sequence | pre-steady-state target cleavage rate |
| --- | --- |
| UAGUGACAGACCUUCUCUGAGCGAUUAACA | 0.00395 ± 0.004 |
| UAGUGACAGACCUUCUCUGAGACAUUAUGA | 0.000143 ± 0.035 |
| UAGUGACAGUGCUUCUGUGAGAGAUUAAGA | 0.00233 ± 0.005 |
| UAGUGACAGUGCUUCUCUGUGUGAUUAACA | 0.00231 ± 0.0032 |
| UAGUGACACACCUACUCUGAGAGAUAUUGA | 0.000323 ± 0.018 |
| UAGUGACAGUGCUUCUCUGUGAGAAUAACA | 0.00179 ± 0.0036 |
| UAGUCUGUCACCUUCUCUGAGAGUUUAACA | 0.238 ± 0.04 |
| UAGUGACAGUGCAUCUCUGAGAGAUAAACA | 0.000239 ± 0.0091 |
| UAGUGACAGACCUUCUCUGAGAGGUUAACA | 0.221 ± 0.058 |
| UAGUGACUCACCUUCUGACAGAGAUUAACA | 0.00353 ± 0.0037 |
| UAGUGACAGUGGUUCUCCGAGAGAUUAACA | 0.00186 ± 0.0056 |
| UAGUGACAGUGGUUCUCUGUCUGAUUAACA | 0.000112 ± 0.025 |
| UAGUGACAGACCUUCUCUGAGAGUUUUUGA | 0.00118 ± 0.012 |
| UAGUGACAGUGGAUCUCUGAGAGGUUAACA | 0.00057 ± 0.0092 |
| UAGUGACAGUGGAAGUCUGAGAGAUGUAACA | 0.000278 ± 0.015 |
| UAGUGACACACCUUCUCUCUCAGAUUAACA | 0.00233 ± 0.0047 |
| UAGUGACAGUGGAAGUCUGAGAGAUUAUACA | 0.000302 ± 0.013 |
| UAGUGACACACCUUCUCUGAGUCAUAUUGA | 0.000291 ± 0.021 |
| UAGUCUGUCACCUUCUCAGAGAGAAUAACA | 0.0517 ± 0.017 |
| UAGUGUGUCACCUUCUCUGAGUCAUUAACA | 0.00291 ± 0.0044 |
| UAGUGACAGUCCUUCUCUGAGUGAUUAACA | 0.00123 ± 0.0045 |
| UAGUGACAGUCGAACUCUGAGAGAUUAACA | 0.000419 ± 0.013 |
| UAGUGACUCACCUUCUCUGACUCAUUUUGA | 0.00014 ± 0.028 |

An excerpt of these results, field by field:
UAGUCUGUCACCUUCUCAGAGAGAAUAACA
  pre-steady-state target cleavage rate = 0.0517 ± 0.017
UAGUGUGUCACCUUCUCUGAGUCAUUAACA
  pre-steady-state target cleavage rate = 0.00291 ± 0.0044
UAGUGACAGUCCUUCUCUGAGUGAUUAACA
  pre-steady-state target cleavage rate = 0.00123 ± 0.0045

Next records:

| Sequence | pre-steady-state target cleavage rate |
| --- | --- |
| UAGUGACAGUGGAAGUCUGAGACAUAAACA | 0.000215 ± 0.031 |
| UAGUGACAGUGGAUCUUCUGAGAGAUUAACA | 0.000495 ± 0.0065 |
| UAGUGUGUGUGCUUCUCUGAGAGAUUUUGA | 0.000656 ± 0.012 |
| UAGUGACAGUGGAUCUCUGAGAGUAUUAACA | 0.000184 ± 0.019 |
| UAGUGACAGUGGAACUCUGAGACAUUAACA | 0.000452 ± 0.02 |
| UAGUGACAGUCCUUCUGACUCUCUAAUUGA [g15:g20:cont:t1A] | 0.000448 ± 0.015 |
| UAGUGACAGUCCUUCUCUGACUGAUUAACA | 0.000448 ± 0.0077 |
| UAGUGACACACCUUCAGUGAGAGAUUAACA | 0.0881 ± 0.016 |
| UAGUGACAGUGGAACUCUGAGAGAUUAAUA | 0.000654 ± 0.023 |
| UAGUGACAGUGGAAGUCUGAGAGGAUUAACA | 0.000167 ± 0.018 |
| UAGUGUGUCACCUUGCUCUGAGAGAUUAACA | 0.248 ± 0.061 |
| UAGUGUGUCACCUUCUCUGAGACUAUAUGA | 0.000973 ± 0.011 |
| UAGUGUGUCACCUUGACUGAGAGAUUUUGA | 0.000453 ± 0.022 |
| UAGUGACAGUGGUUCACUGAGAGAUUUACA | 0.00052 ± 0.016 |
| UAGUGACAGUGGAAGAGAGACUCAUUAACA | 0.000415 ± 0.014 |
| UAGUGACACACCUUCUCUGACUCAUUAACA | 0.00121 ± 0.0076 |
| UAGUGAGUCACCUUCUCUGAGACUAUAAGA | 0.000707 ± 0.0094 |
| UAGUGACACACCUUCUCUGACAGAUAAACA | 0.00064 ± 0.012 |
| UAGUGACAGUGGAACUCUGAGAGAUUAACG [g2:g16:cont:t1G] | 0.000335 ± 0.019 |
| UAGUGACAGUGGUAGUCUGAGAGAUUAACA | 0.00082 ± 0.0057 |
| UAGUGACAGUGGAAGACUGACUCAUUAACA | 0.000173 ± 0.018 |
| UAGUGACAGACCUUCUCUGAGAGAAAUACA | 0.00144 ± 0.007 |
| UAGUGACAGUGCUUCUCUGAGAGAAAUACA | 0.000143 ± 0.057 |

As entered above:
UAGUGACAGUGGAACUCUGAGAGAUUAAUA – pre-steady-state target cleavage rate: 0.000654 ± 0.023
UAGUGACAGUCCUUCUCUGACUGAUUAACA – pre-steady-state target cleavage rate: 0.000448 ± 0.0077
UAGUGACAGUGGUUCACUGAGAGAUUUACA – pre-steady-state target cleavage rate: 0.00052 ± 0.016

Following part.

| Sequence | pre-steady-state target cleavage rate |
| --- | --- |
| UAGUGACAGUGGAAGAGUCAGUGAUUAACA | 0.000117 ± 0.065 |
| UAGUGUGUCACCUUCUCUGAGAGUUAAACA | 0.146 ± 0.049 |
| UAGUGACUCACCUUCUCUGGAGAGAUUAACA | 0.00054 ± 0.014 |
| UAGUGACACACCUUCUCUGAGAGUAUAUGA | 0.00215 ± 0.0055 |
| UAGUCUGUCACCUUCUCUGAGUCAUUAAGA | 0.000704 ± 0.0075 |
| UAGUGACAGUGGUUCGUCUGAGAGAUUAACA | 0.000455 ± 0.0063 |
| UAGUGUGUCACCUUCUCUGAGAGAUUACCA | 0.197 ± 0.037 |
| UAGUGACACACCUUCUCUGAGAGUUUUACA | 0.00423 ± 0.0054 |
| UAGUGACUCACCUUCAGUGAGAGAUUAACA | 0.0471 ± 0.0078 |
| UAGUGACUCACCUUCUCUGUGAGAUUUUGA | 0.00255 ± 0.0043 |
| UAGUGACAGUGGUUCUCUGAGUAGAUUAACA | 0.00101 ± 0.0077 |
| UAGUGACAGACCUUCUCUGAGUGAUUAUCA | 0.000489 ± 0.027 |
| UAGUGACAGUCCUUCUCUGAAGAGAUUAACA | 0.000466 ± 0.0064 |
| UAGUGACACACCUUCUCUGACAGAAUAACA | 0.000845 ± 0.011 |
| UAGUGACAGACCUUCUCUCUGAGAUUAACA | 0.00227 ± 0.0043 |
| UAGUGUGUCACCUUCUGUGUGAGAUUAACA | 0.0302 ± 0.004 |
| UAGUGACAGUGGAAGAGAGAGAGAUAUUCA | 0.00053 ± 0.015 |
| UAGUGACAGUGGAAGAGUGACACAUUAACA | 0.000348 ± 0.014 |
| UAGUCUGUCACCUUCUCUGUCUGAUUAACA | 0.00223 ± 0.0042 |
| UAGUGACAGUGCUUCUCAGUGAGAUUAACA | 0.00265 ± 0.0032 |
| UAGUGACAGACGUUCUCUGAGAGAUUUUGA | 0.00055 ± 0.018 |
| UAGUGACAGUGGAAGUCUGAGAGAUAUAACA | 0.000129 ± 0.022 |
| UAGUGACUCAGCUUGUCUGAGAGAUUAACA | 0.112 ± 0.0088 |

| Sequence | pre-steady-state target cleavage rate |
| --- | --- |
| UAGUGACAGUGGAACUCUGACUCUAAUUGA [g11:g16:cont:t1A] | 0.00476 ± 0.0086 |
| UAGUGACAGUGGAAGUCCUGAGAGAUUAACA | 0.000109 ± 0.029 |
| UAGUGAGUCAGGUUCUCUGAGAGAUAUUGA | 0.000844 ± 0.0098 |
| UAGUGUGUCACCUUCUCUGAGAGAUUAAA | 0.234 ± 0.064 |
| UAGUGACACAACCUUCUCUGAGAGAUUAACA | 0.155 ± 0.018 |
| UAGUGACUCACCUUCUCUGAGUAGAUUAACA | 0.00176 ± 0.0059 |
| UAGUGACAGACCUUCUCUGAGACAUUUACA | 0.000892 ± 0.0089 |
| UAGUGAGUCACCUUCUCUGACAGAUAAACA | 0.00183 ± 0.0087 |
| UAGUGUGUGACCUUCUCUGAGAGAUAUUGA | 0.00155 ± 0.007 |
| UAGUGACACACCUUCUCUCAGAGAUUAUGA | 0.00858 ± 0.0045 |
| UAGUGACAGUCCUUCUGACAGAGAUUAACA | 0.000607 ± 0.0087 |
| UAGUGACACACCUUCUCUGAGACUAUAAGA | 0.000357 ± 0.017 |
| UAGUGACAGACCUUCUCUCAGAGAUUAAGA | 0.00122 ± 0.012 |
| UAGUGAGUGUGCUUCUCUGAGAGAUUUUGA | 0.000479 ± 0.014 |
| UAGUGACAGACCUUCUGACAGAGAUUAUGA | 0.000113 ± 0.072 |
| UAGUGACAGACCUUCUCUGAGAGAUUUUGA | 0.0009 ± 0.012 |
| UAGUGACAGUCCAUCUCUGAGAGAUUAAGA | 0.0017 ± 0.0047 |
| UAGUGACAGACCUUCUCUGAGAGAUUCAACA | 0.177 ± 0.04 |
| UAGUGACACAGGAUCUCUGAGAGAUUAUGA | 0.000214 ± 0.014 |
| UAGUCUGUCACCUUCUCUGAGAGAUUCAACA | 0.324 ± 0.061 |
| UAGUGAGUCACCUGCUCUGAGAGAUUAACA | 0.169 ± 0.018 |
| UAGUGACAGUGCUACUCUGAGAGAUUUACA | 0.00147 ± 0.0052 |
